Data as given in PubChem BioAssay AID504774 (Drosophila RNAi Screening Center, 2011)
The screen tested about 23,000 reagents; shown is a random part of those with a known target gene and a result. 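Values are quantile-normalised luminescence on an arbitrary scale; higher means more cells surviving MMS.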 Names joined by + are all predicted targets of the reagent.

- Assay: 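Knock-downs that shift viability of MMS-exposed cells relative to untreated ones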 (primary screen)
- Cell system: Drosophila Kc167 cells
- Reagent: long dsRNA against Drosophila genes, about 0.25 µg dsRNA per well
- Time to read-out: about 6 days: 3 days knock-down, then 3 days with or without MMS
- Conditions: methyl methanesulphonate 0.004% (w/v) for 3 days after knock-down
- Detection: 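Viability in wells given MMS, read as ATP luminescence, normalised by quantiles plate by plate and averaged across replicates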
- Reading the numbers: mean viability with MMS and viability with MMS: higher = more surviving cells after MMS

no.	gene knocked down	amplicon	mean viability with MMS	viability with MMS, replicate 1	viability with MMS, replicate 2
1	DCAF12	DRSC15475	3.66e6	4.26e6	4.08e6
2	CG15014	DRSC08468	3.39e6	3.98e6	3.69e6
3	CG11843	DRSC14401	3.55e6	4.12e6	3.91e6
4	MYPT-75D	DRSC10743	3.71e6	4.14e6	4.21e6
5	CG4017	DRSC02733	3.52e6	4.03e6	3.96e6
6	CG1368	DRSC19537	3.36e6	4.10e6	3.52e6
7	Nadk1a	DRSC05431	3.63e6	4.07e6	4.08e6
8	Nadk1a	DRSC06963	3.95e6	4.32e6	4.50e6
9	g	DRSC20335	3.39e6	3.87e6	3.84e6
10	Spt	DRSC07123	3.53e6	4.08e6	3.93e6
11	eIF3c	DRSC06905	3.04e6	3.58e6	3.57e6
12	Mpi	DRSC16417	3.54e6	4.09e6	3.95e6
13	CG17567 (retired record)	DRSC02627	3.72e6	4.20e6	4.17e6
14	CG17567 (retired record)	DRSC22537	3.67e6	4.11e6	4.13e6
15	HDAC4	DRSC19780	3.68e6	4.19e6	4.11e6
16	CG9682	DRSC16536	3.62e6	4.05e6	4.15e6
17	CG32448	DRSC22657	3.47e6	3.91e6	4.01e6
18	NT1	DRSC08530	3.53e6	4.03e6	3.98e6
19	NT1	DRSC22895	3.36e6	3.90e6	3.86e6
20	Ntl	DRSC03003	1.99e6	4.04e6	4.21e6
21	PolZ1	DRSC06800	3.46e6	4.01e6	3.81e6
22	CG13361	DRSC17896	3.76e6	4.31e6	4.16e6
23	Tmem63	DRSC06063	3.62e6	4.10e6	4.05e6
24	Tsen34	DRSC22932	3.62e6	4.08e6	4.08e6
25	OS9	DRSC02700	3.49e6	3.94e6	3.97e6
26	RpL31	DRSC06716	2.93e6	3.60e6	3.60e6
27	CG31121	DRSC15361	3.66e6	4.13e6	4.17e6
28	CG31121	DRSC15363	3.56e6	3.97e6	4.09e6
29	alt	DRSC15315	3.81e6	4.28e6	4.24e6
30	CG17508	DRSC07771	3.70e6	4.20e6	4.11e6
31	CG15145	DRSC02446	3.48e6	3.96e6	3.94e6
32	MFS16	DRSC04051	3.74e6	4.33e6	4.09e6
33	UQCR-6.4	DRSC06454	3.66e6	4.15e6	4.11e6
34	Taf10b + Taf10	DRSC00793	3.23e6	3.64e6	3.59e6
35	CG11317	DRSC14299	3.47e6	3.93e6	3.94e6
36	CG8349	DRSC03083	3.52e6	3.99e6	4.00e6
37	ms(3)76Cc	DRSC11071	3.81e6	4.26e6	4.23e6
38	ms(3)76Cc	DRSC21630	3.46e6	3.94e6	3.95e6
39	CG10139	DRSC05972	3.36e6	3.76e6	3.82e6
40	stan	DRSC05234	3.30e6	3.79e6	3.94e6
41	stan	DRSC07697	3.53e6	3.96e6	4.06e6
42	Rme-8	DRSC07054	3.53e6	3.95e6	4.05e6
43	CG3817	DRSC15515	3.53e6	4.03e6	3.98e6
44	HP6	DRSC00471	3.41e6	3.81e6	3.89e6
45	fred	DRSC00349	3.70e6	4.20e6	4.11e6
46	fred	DRSC00599	3.45e6	4.04e6	3.92e6
47	fred	DRSC00601	3.41e6	3.86e6	3.86e6
48	fred	DRSC00602	3.59e6	3.95e6	4.17e6
49	fred	DRSC21906	3.55e6	3.97e6	4.07e6
50	CG15237	DRSC04971	3.49e6	4.00e6	3.94e6
51	CG33309	DRSC01421	3.53e6	4.01e6	4.00e6
52	Osi11	DRSC12282	3.44e6	3.96e6	3.87e6
53	CG31200	DRSC15285	3.55e6	4.08e6	3.96e6
54	CG8564	DRSC10997	3.59e6	4.00e6	4.15e6
55	CG18128	DRSC04304	3.53e6	3.91e6	4.10e6
56	Dbct	DRSC19951	3.57e6	3.98e6	3.90e6
57	CG8065	DRSC10959	3.47e6	3.87e6	3.99e6
58	CG12811	DRSC14549	3.51e6	4.01e6	3.97e6
59	Roe1	DRSC07534	3.62e6	4.15e6	4.08e6
60	unk	DRSC17093	3.57e6	3.99e6	4.12e6
61	Gr47b	DRSC05275	3.44e6	3.92e6	3.95e6
62	CG14691	DRSC14914	3.46e6	3.92e6	3.96e6
63	nom	DRSC16389	3.61e6	4.15e6	4.04e6
64	CG11693	DRSC14353	3.36e6	3.83e6	3.83e6
65	CdGAPr	DRSC03289	3.50e6	3.95e6	3.99e6
66	Cpr49Ad	DRSC07284	3.54e6	4.16e6	3.95e6
67	resilin	DRSC05627	3.62e6	4.15e6	4.03e6
68	resilin	DRSC06595	3.55e6	4.08e6	3.97e6

7 entries from above in another layout:
gene knocked down	amplicon	mean viability with MMS	viability with MMS, replicate 1	viability with MMS, replicate 2
HP6	DRSC00471	3.41e6	3.81e6	3.89e6
fred	DRSC00349	3.70e6	4.20e6	4.11e6
fred	DRSC00599	3.45e6	4.04e6	3.92e6
fred	DRSC00601	3.41e6	3.86e6	3.86e6
fred	DRSC00602	3.59e6	3.95e6	4.17e6
fred	DRSC21906	3.55e6	3.97e6	4.07e6
CG15237	DRSC04971	3.49e6	4.00e6	3.94e6
